# Laboratory results as given in US9101616B2, “Aryl substituted carboxamide derivatives as calcium or sodium channel blockers” (RaQualia Pharma Inc., priority 2009, dated 2015).
# Some results were stated once for a whole list of compounds, not compound by compound.
# Tested on: human NaV1.3 or human NaV1.7 channels
# Assay: NaV1.3 FRET or NaV1.7 FRET Assays (result not assigned to one channel)
# Assay type: cell-based
# Details: which one not given
compound,measurement,value
"C[C@@H](NC(=O)c1cn(C)c2cc(F)ccc12)c1ccc(OCC(F)(F)F)cn1 [Example 138, (R)-6-fluoro-1-methyl-N-(1-(5-(2,2,2-trifluoroethoxy)pyridin-2-yl)ethyl)-1H-indole-3-carboxamide]",IC50,≤ 1000 nM
